Where two headings read alike, the source gives them in different places.
In the case of `Cc1c(C)c(C)[c-](C)c1C.Oc1cccc(-c2cccc(O)n2)n1.[Cl-].[Cl][Ir+2]` [[Cp*IrCl(6,6′-DHBP)]Cl, [Cp*Ir(6,6′-DHBP)Cl]Cl], the “O2 formation [mass = 32], % TIC” value (20 minutes, 0.10 M (NH4)2Ce(NO3)6 plus 34 μM catalyst stock) is reported as 2.42 % TIC, the “O2 formation [mass = 32], % TIC” value (40 minutes) is reported as 3.35 % TIC and the “O2 formation [mass = 32], % TIC” value (60 minutes) is reported as 3.81 % TIC. The “O2 formation [mass = 32], % TIC” value (80 minutes) was 3.55 % TIC, the “O2 formation [mass = 32], % TIC” value (100 minutes) was 3.63 % TIC and the “O2 formation [mass = 32], % TIC” value (120 minutes) was 3.49 % TIC. For the same compound, the “increase of % TIC accounting for O2 formation” value (over the course of 60 minutes) was 3.3 % TIC.
